Reference: patent US5047502A, “Gastrin releasing peptide antagonist” (Merck and Co., Inc., priority 1989, dated 1991)
At least one structure is not confirmed: it was looked up by name or label, or the drawing left a doubt. Residues, ends and D or L forms follow the SMILES beside them. *: point of attachment. OiPr = CC(C)O*

By UniProt entry, the sequences of proteins in these tests, tags left out. Where a name states a change or a piece, a line headed by the entry shows the natural chain unless it says otherwise.
UniProt P21729: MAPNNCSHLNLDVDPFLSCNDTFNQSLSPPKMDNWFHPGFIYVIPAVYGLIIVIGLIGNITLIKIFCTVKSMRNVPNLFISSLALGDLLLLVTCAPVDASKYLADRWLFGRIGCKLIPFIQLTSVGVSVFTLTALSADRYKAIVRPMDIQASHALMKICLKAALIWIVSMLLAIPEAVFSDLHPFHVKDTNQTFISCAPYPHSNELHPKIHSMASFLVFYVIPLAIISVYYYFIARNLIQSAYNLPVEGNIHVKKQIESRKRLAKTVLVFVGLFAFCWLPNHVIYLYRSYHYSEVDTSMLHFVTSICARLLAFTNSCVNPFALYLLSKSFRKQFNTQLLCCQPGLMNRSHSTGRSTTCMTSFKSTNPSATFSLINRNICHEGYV

Target: T1, GRP receptor (Mus musculus, UniProt P21729)
T1 construct: Swiss 3T3 fibroblasts were used in these tests as the source of GRP receptor; endogenous in cells; host or cells: Swiss 3T3 fibroblasts (from Dr. K. Brown, Institute of Animal Physiology, Cambridge, U.K.)
Assay: Binding inhibition of radiolabelled GRP (Procedure A)
Details: assays of example 2 repeated; unit inferred
Experimental: Swiss 3T3 cells, obtained from Dr. K. Brown (Institute of Animal Physiology, Cambridge, U.K.). The cells were grown to confluency in Costar 12-well plates containing DMEM (Gibco) supplemented with 10% fetal bovine serum, 2 mM glutamine and 1% penicillin-streptomycin. The cells were washed twice with binding buffer [1:1 DMEM:Waymouths MB752/1 medium, plus 1 mg/ml BSA (Fraction V, Calbiochem)]. The antagonist was dissolved in 10 mM HCl, and diluted to the appropriate concentration in binding buffer. The antagonist was then added to the cells, followed by radiolabelled GRP at a final concentration of 7 nM. After 30 minutes incubation at 37° C., the supernatant liquid was removed and the cell monolayer rinsed four times with washing buffer (150 mM NaCl, 20 mM Na2 HPO4, 5 mM KCl, 1.8 mM KH2 PO4, 1 mg/ml BSA). The cells were then lysed with 1 ml/well of lysis buffer (1% Triton X-100, 0.1% BSA), and the solution was aspirated into scintillation vials for counting. Each data point was collected in triplicate.
Binding Inhibition: [Antagonist] which reduces the specific binding of 7 nM [^3 H-Phe^15 ] GRP 15-27 to 50% of the level observed in the absence of antagonist. Assay performed in Swiss 3T3 cell monolayers.

`CC(=O)N[C@@H](Cc1c[nH]cn1)C(=O)N[C@@H](Cc1c[nH]c2ccccc12)C(=O)N[C@@H](C)C(=O)N[C@H](C(=O)NCC(=O)N[C@@H](Cc1c[nH]cn1)C(=O)N[C@@H](CC(C)C)C(=O)OC(C)C)C(C)C` [AcHisTrpAlaValGlyHisLeu--OCH2 (CH3)2] (Ac-HWAVGHL-OiPr) was tested, and the IC50 was 38 nM.
